# PubChem BioAssay AID493246 – Drosophila RNAi Screening Center – 2011
# Purpose: 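Genome-wide search for dsRNAs that reduce cell number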 (primary screen)
# Cell system: Drosophila Kc and S2R+ cells
# Knock-down reagent: long dsRNA against Drosophila genes
# Read-out: 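Raw, unnormalised count of remaining cells in each well; per-plate z-scores of cell number underlie the calls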
# Scale: Kc cell number and S2R+ cell number: higher = more cells remaining
# Call rule: 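Counted as a hit if cell number falls by a z-score of at least 3 within its plate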
# The screen tested about 21,000 reagents; this is an unselected part of those with a known target gene and a result. Over the whole deposit, 429 (2%) were called active. 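Values are raw and not normalised between plates; calls rest on per-plate z-scores that were not deposited.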 A plus sign joins genes that one reagent is predicted to hit. Not given: the amount of reagent, the time to read-out.
target gene,amplicon,"Kc cell number, rep 1","Kc cell number, rep 2","S2R+ cell number, rep 1","S2R+ cell number, rep 2",Call
rpk,DRSC12386,1.72e6,1.70e6,1.42e6,1.57e6,inactive
Vha68-1,DRSC03470,1.87e6,2.04e6,1.27e6,1.40e6,inactive
Cdc27,DRSC11112,1.24e6,1.34e6,7.05e5,7.36e5,active
CG13075,DRSC09958,1.39e6,1.51e6,1.28e6,1.34e6,inactive
su(w[a]),DRSC18840,5.17e5,,8.01e5,,inactive
CG8839,DRSC07285,1.31e6,1.45e6,9.60e5,1.09e6,inactive
CG12698,DRSC19485,1.48e6,1.52e6,1.12e6,1.23e6,inactive
CG32638,DRSC18968,1.20e6,1.69e6,1.18e6,1.22e6,inactive
Spx,DRSC18720,1.20e6,1.30e6,6.98e5,7.91e5,inactive
RpL13A,DRSC12265,1.10e6,1.22e6,7.28e5,7.87e5,active
Or92a,DRSC16771,1.39e6,1.37e6,1.14e6,1.23e6,inactive
CG13228,DRSC06348,1.59e6,1.63e6,1.25e6,1.37e6,inactive
Mal-B1,DRSC02416,1.66e6,1.64e6,1.42e6,1.70e6,inactive
wun2,DRSC07566,1.78e6,1.88e6,1.44e6,1.58e6,inactive
Npl4,DRSC15615,4.92e5,,6.59e5,,inactive
Npl4,DRSC15616,1.54e6,1.50e6,1.00e6,1.09e6,inactive
eIF1,DRSC08520,1.14e6,1.13e6,8.72e5,1.08e6,inactive
CG14420,DRSC17917,1.58e6,1.65e6,9.73e5,1.10e6,inactive
sif,DRSC08759,1.54e6,1.47e6,1.02e6,1.20e6,inactive
sif,DRSC11395,1.57e6,1.93e6,1.19e6,1.25e6,inactive
CG9760,DRSC11101,1.24e6,1.30e6,1.24e6,1.29e6,inactive
ssp3,DRSC02669,1.55e6,1.74e6,1.34e6,3.89e5,inactive
ssp3,DRSC02670,1.82e6,1.85e6,1.20e6,1.94e5,inactive
Tdg,DRSC17119,1.13e6,1.33e6,1.07e6,1.07e6,inactive
Tdg,DRSC17169,1.40e6,1.44e6,1.00e6,1.10e6,inactive
CG10584,DRSC11624,1.36e6,1.33e6,1.36e6,1.47e6,inactive
Taf10b,DRSC00792,1.58e6,1.63e6,1.11e6,1.32e6,inactive
yrt,DRSC16559,1.59e6,1.64e6,1.42e6,1.53e6,inactive
BicD,DRSC02006,1.22e6,1.47e6,1.07e6,1.14e6,inactive
CG3528,DRSC00611,1.44e6,1.53e6,1.05e6,1.20e6,inactive
Tollo,DRSC11305,1.27e6,1.45e6,1.39e6,1.41e6,inactive
S-Lap3,DRSC10956,1.37e6,1.43e6,1.22e6,1.18e6,inactive
CG30371,DRSC06835,1.44e6,1.61e6,1.22e6,1.37e6,inactive
CG1090,DRSC12150,1.75e6,1.77e6,1.34e6,1.42e6,inactive
CG5793,DRSC15874,1.37e6,1.51e6,9.66e5,1.24e6,inactive
CstF64,DRSC16616,1.45e6,1.43e6,1.11e6,1.21e6,inactive
Bap170,DRSC04964,1.52e6,1.55e6,1.14e6,1.22e6,inactive
Ino80,DRSC14760,1.39e6,1.41e6,1.07e6,1.16e6,inactive
Ino80,DRSC15333,1.50e6,1.46e6,1.30e6,1.38e6,inactive
Ino80,DRSC15501,1.38e6,1.42e6,1.09e6,1.19e6,inactive
blow,DRSC07586,1.09e6,1.28e6,1.00e6,1.01e6,inactive
CG2021,DRSC08546,1.55e6,1.45e6,9.95e5,1.31e6,inactive
CG10853,DRSC08164,1.31e6,1.27e6,9.60e5,1.15e6,inactive
CG4282,DRSC06865,1.39e6,1.53e6,1.29e6,1.33e6,inactive
CG17567 (retired record),DRSC02627,1.49e6,1.60e6,1.33e6,3.57e5,inactive
Cyp12c1,DRSC11125,1.70e6,1.79e6,1.54e6,1.54e6,inactive
CG12902,DRSC06217,1.48e6,1.56e6,1.30e6,1.37e6,inactive
Elk,DRSC07608,1.57e6,1.67e6,1.15e6,9.83e5,inactive
CG32855,DRSC13131,1.55e6,1.76e6,1.11e6,1.26e6,inactive
kek2,DRSC03552,1.70e6,1.80e6,1.41e6,1.51e6,inactive
Apt1,DRSC10348,1.51e6,1.51e6,1.17e6,1.30e6,inactive
CG15098,DRSC06527,1.71e6,1.72e6,1.12e6,1.27e6,inactive
NijC,DRSC14851,1.70e6,1.68e6,1.36e6,1.48e6,inactive
GstD1,DRSC16683,1.48e6,1.45e6,1.19e6,1.29e6,inactive
zpg,DRSC09702,1.33e6,1.42e6,1.19e6,1.19e6,inactive
CG8087,DRSC16375,1.50e6,1.61e6,1.18e6,1.25e6,inactive
CG4815,DRSC15653,1.47e6,1.49e6,1.01e6,1.15e6,inactive
cactin,DRSC20576,1.45e6,1.51e6,8.26e5,9.42e5,inactive
CG43163,DRSC10745,1.41e6,1.35e6,1.12e6,1.17e6,inactive
CG43163,DRSC10748,1.38e6,1.36e6,1.10e6,1.14e6,inactive
RagC-D,DRSC07239,1.60e6,1.72e6,1.13e6,1.23e6,inactive
CG5326,DRSC13568,1.44e6,1.50e6,1.04e6,1.13e6,inactive
CG5326,DRSC15770,1.47e6,1.61e6,1.13e6,1.17e6,inactive
bdl,DRSC00271,1.41e6,1.33e6,1.13e6,1.26e6,inactive
CG30098,DRSC05605,4.81e5,,7.57e5,,inactive
bon,DRSC16914,1.26e6,1.27e6,1.01e6,1.09e6,inactive
CG15725,DRSC19691,1.53e6,1.47e6,1.01e6,1.11e6,inactive
CG9330,DRSC11066,1.40e6,1.46e6,1.25e6,1.31e6,inactive
X11L,DRSC19958,1.72e6,1.76e6,1.14e6,1.24e6,inactive
X11L,DRSC19959,1.54e6,1.40e6,1.11e6,1.23e6,inactive
Acp63F,DRSC08137,1.48e6,1.57e6,1.03e6,1.19e6,inactive
euc,DRSC14492,1.48e6,1.59e6,1.01e6,9.12e5,inactive
Spag1,DRSC15331,1.47e6,1.45e6,9.35e5,1.11e6,inactive
CG14471 (retired record),DRSC04865,1.31e6,1.44e6,1.17e6,1.11e6,inactive
Rpp20 + CG33932,DRSC19467,1.57e6,1.60e6,1.04e6,1.17e6,inactive

Records listed so far whose gene name starts with E or e:
target gene,amplicon,"Kc cell number, rep 1","Kc cell number, rep 2","S2R+ cell number, rep 1","S2R+ cell number, rep 2",Call
eIF1,DRSC08520,1.14e6,1.13e6,8.72e5,1.08e6,inactive
Elk,DRSC07608,1.57e6,1.67e6,1.15e6,9.83e5,inactive
euc,DRSC14492,1.48e6,1.59e6,1.01e6,9.12e5,inactive
